According to PMC3690481:
Results are given in words; binding and its absence hold for the method and conditions named. In cells and extracts the contact can be indirect. Some binding calls cover weakened binding; strength is not graded here.

Protein sequences, listed by entry. Tags and fused reporters are not part of them.
UniProt Q9Y6K9: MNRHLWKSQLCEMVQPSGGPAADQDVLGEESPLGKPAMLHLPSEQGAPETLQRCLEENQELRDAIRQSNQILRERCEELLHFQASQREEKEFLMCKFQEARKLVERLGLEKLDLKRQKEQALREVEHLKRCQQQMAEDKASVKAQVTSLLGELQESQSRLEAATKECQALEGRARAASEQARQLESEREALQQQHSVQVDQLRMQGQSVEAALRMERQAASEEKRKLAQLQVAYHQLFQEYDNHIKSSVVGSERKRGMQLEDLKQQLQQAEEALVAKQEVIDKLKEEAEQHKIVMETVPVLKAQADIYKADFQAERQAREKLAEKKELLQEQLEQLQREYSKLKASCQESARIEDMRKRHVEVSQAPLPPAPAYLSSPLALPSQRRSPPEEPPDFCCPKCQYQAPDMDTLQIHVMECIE
UniProt Q96EP0: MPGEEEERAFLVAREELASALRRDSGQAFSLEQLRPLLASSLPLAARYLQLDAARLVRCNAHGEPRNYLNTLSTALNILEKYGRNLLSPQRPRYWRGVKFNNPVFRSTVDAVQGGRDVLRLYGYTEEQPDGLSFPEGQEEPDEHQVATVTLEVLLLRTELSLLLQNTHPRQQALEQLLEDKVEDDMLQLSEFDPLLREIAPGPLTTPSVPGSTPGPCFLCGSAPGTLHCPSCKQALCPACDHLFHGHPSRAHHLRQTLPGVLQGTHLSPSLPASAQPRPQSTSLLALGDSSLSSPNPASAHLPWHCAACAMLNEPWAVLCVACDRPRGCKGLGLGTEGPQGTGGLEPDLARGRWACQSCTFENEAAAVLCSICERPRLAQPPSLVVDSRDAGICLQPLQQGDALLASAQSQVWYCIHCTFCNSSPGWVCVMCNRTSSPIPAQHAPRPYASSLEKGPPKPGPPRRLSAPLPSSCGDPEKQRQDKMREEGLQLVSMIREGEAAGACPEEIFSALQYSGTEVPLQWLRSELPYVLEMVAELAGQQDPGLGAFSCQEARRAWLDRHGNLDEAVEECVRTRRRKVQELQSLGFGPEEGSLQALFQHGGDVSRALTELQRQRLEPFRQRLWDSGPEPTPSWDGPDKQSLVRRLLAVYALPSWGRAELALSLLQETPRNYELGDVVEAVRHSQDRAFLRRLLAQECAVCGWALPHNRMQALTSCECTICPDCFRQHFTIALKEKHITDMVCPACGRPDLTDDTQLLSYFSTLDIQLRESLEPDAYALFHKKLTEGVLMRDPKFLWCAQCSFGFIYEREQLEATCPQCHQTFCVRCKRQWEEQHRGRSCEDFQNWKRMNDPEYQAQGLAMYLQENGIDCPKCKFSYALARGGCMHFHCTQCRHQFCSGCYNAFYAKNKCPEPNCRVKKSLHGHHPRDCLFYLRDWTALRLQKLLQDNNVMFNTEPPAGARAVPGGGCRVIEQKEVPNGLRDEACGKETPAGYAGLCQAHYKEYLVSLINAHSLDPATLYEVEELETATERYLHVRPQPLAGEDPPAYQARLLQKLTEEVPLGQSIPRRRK
UniProt Q96BN8: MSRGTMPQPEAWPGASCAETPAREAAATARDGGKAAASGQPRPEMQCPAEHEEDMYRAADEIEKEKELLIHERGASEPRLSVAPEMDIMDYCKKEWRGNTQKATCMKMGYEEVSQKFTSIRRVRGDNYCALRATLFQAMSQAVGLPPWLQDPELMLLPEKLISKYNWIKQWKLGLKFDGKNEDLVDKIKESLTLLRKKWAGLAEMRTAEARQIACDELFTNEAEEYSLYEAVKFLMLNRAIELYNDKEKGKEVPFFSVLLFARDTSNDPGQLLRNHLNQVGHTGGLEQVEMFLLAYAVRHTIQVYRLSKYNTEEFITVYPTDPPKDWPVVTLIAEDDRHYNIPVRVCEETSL

Columns and labels:
[1] = target: GST-tagged NEMO wild-type (UniProt Q9Y6K9); test: pull-down; GST-NEMO transfected with or without LUBAC into doxycycline-induced control or OTULIN-overexpressing T-REx 293 cells; lysate in PBS, 0.1% Triton X-100, 2 mM NEM on GSH sepharose overnight; western blot
[2] = target: T1, endogenous SHARPIN (human (endogenous in HEK 293ET)) (UniProt Q9H0F6); test: co-IP; IP of endogenous SHARPIN, unstimulated and after TNFα (100 ng/ml); western blot
T1 sequence: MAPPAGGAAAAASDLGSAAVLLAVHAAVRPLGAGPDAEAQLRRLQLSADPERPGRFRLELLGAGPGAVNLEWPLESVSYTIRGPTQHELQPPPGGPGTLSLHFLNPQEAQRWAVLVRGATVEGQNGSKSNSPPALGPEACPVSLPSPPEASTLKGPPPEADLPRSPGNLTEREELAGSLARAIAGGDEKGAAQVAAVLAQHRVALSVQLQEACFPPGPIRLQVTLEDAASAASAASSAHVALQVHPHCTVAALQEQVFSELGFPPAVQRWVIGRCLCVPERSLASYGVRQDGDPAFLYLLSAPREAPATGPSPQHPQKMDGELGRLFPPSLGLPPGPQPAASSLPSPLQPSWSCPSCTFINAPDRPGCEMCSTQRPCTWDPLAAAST

Row | binding [1] | binding [2] | Substance
1 | binds |  | HOIL-1L (transfected LUBAC component) (from UniProt Q9BYM8-1 1-510) (enzyme)
2 | binds |  | HOIP (transfected LUBAC component) (from UniProt Q96EP0 1-1072) (enzyme)
3 | binds |  | MRGS6His-tagged OTULIN (from UniProt Q96BN8 1-352) (enzyme)
4 |  | binds | endogenous HOIP (from UniProt Q96EP0 1-1072) (enzyme)
